Test results published in PubChem BioAssay AID2685 (National Center for Advancing Translational Sciences (NCATS), 2010).
Some of the results follow. These are further read-outs of the screen, such as a control signal, another cell line or another target. No call is given for them. The list favours compounds with an active or inconclusive main result. The note in brackets gives the kind of curve behind each potency; many fits are weak.

Test: qHTS Assay for Lipid Storage Modulators in Drosophila S3 Cells;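 as to cell number change: cells counted by Cell Tracker Red CMTPX staining in the red channel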
Conditions: BODIPY lipid droplet fluorescence, 18-24 h; for cell number change: measured here: cell count max response, cells fed with added oleic acid
Procedure, shortened: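 Drosophila S3 cells loaded with oleic acid (400 uM, as added) and compounds at several concentrations; lipid droplets imaged by 488-nm laser-scanning cytometry, 500–530 nm intensity and object ratio to cell channel. Percent activity normalized to 20 uM Triacsin C.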

[1] = measured here: lipid fluorescence (Fed channel) AC50, cells fed with added oleic acid
[2] = measured here: cell number channel AC50, cells fed with added oleic acid

| Structure (SMILES) | cell number change [%] | AC50 [1] | AC50 [2] |
| --- | --- | --- | --- |
| O=c1c2ccccc2nc(-c2ccco2)n1/N=C/c1ccco1 | 4.46 | 1.84 µM [rising, single point] | – |
| Cc1ccc(NC(=O)c2ccc(-c3nn(C)c(=O)c4ccccc34)cc2)cc1 | 19.6 | – | – |
| CC(C)(C)OC(=O)NCCCCCNC(=O)c1[nH]cnc1C(=O)N[C@@H](Cc1ccccc1)C(=O)OCc1ccccc1 | -11.5 | 0.184 µM [rising, full curve, poor fit] | – |
| CCC(C)NC(=O)CSc1nc2ccccc2c(=O)n1Cc1ccc(OC)cc1 (centres undefined) | 118 | 23.1 µM [rising, single point] | 18.4 µM [rising, single point] |
| O=C(COC(=O)CCc1nc2ccccc2n1-c1ccccc1)Nc1cccc(Cl)c1 | 33.3 | 16.4 µM [rising, partial curve] | 20.6 µM [rising, single point] |
| COC(=O)c1ccc(COc2ccccc2[N+](=O)[O-])o1 | -5.87 | 2.06 µM [rising, partial curve] | – |
| CC1=C(OC(=O)c2ccc(Br)cc2)C(C)(C)C(c2ccccc2)OC1=O (centres undefined) | 9.04 | – | – |
| CCCNC(=S)Nc1ccc(Cl)cc1Cl | -11.1 | 1.46 µM [falling, partial curve] | 0.103 µM [falling, full curve] |
| CCN(CC(=O)NCc1cccs1)S(=O)(=O)c1ccc(C(C)C)cc1 | -12.1 | 0.92 µM [falling, single point] | – |
| CCN(CC)S(=O)(=O)c1ccc(N2CC(C(=O)NCc3ccc4c(c3)OCO4)CC2=O)cc1 (centres undefined) | 13.9 | 29.1 µM [falling, single point] | – |
| CC(C)CNC(=S)N(CCN(C)C)Cc1cc2cc3c(cc2[nH]c1=O)OCCO3 | 3.41 | 13 µM [rising, partial curve] | – |
| O=C1[C@@H]2Cc3c([nH]c4ccccc34)CN2C(=O)CN1CCO | 95.1 | – | 3.26 µM [rising, full curve] |
| CN(C)CCCN(C(=O)COc1ccccc1)c1nc2cc3c(cc2s1)OCCO3 | 5.89 | 6.51 µM [rising, single point] | – |
| CCN(CC(=O)NCc1cccs1)C(=O)c1ccc(S(=O)(=O)Nc2ccccc2C)cc1 | 0.263 | 0.326 µM [rising, full curve, poor fit] | – |
| O=c1[nH]n(CC2COC3(CCCCC3)O2)c(=O)c2ccccc12 (centres undefined) | – | – | 0.146 µM [rising, full curve, poor fit] |
| COc1ccc(C(=O)SC2=NCCS2)cc1OC | -20.7 | 0.0517 µM [falling, full curve, poor fit] | 0.00411 µM [falling, full curve, poor fit] |
| Cc1cccc(C)c1NC(=O)CNC(=O)c1cccc(S(=O)(=O)NCc2cccs2)c1 | -33.6 | 29.1 µM [falling, single point] | 32.6 µM [falling, single point] |
| C=C1C[C@@]23CCC4[C@@](C)(CCC[C@@]4(C)C(=O)O)C2CC[C@]1(O)C3 (some centres undefined) | 13.7 | 20.6 µM [rising, partial curve, poor fit] | 0.103 µM [falling, single point] |
| Cc1ccc(Cn2ccc(NC(=O)c3cc(-c4ccccc4)on3)n2)cc1 | 3.65 | 2.59 µM [rising, partial curve] | – |
| CC(=O)C1=C(c2ccccc2)NC(=O)NC1c1ccccc1OCC(=O)Nc1ccccc1 (centres undefined) | – | – | 6.51 µM [rising, single point] |

| Structure (SMILES) | cell number change [%] | AC50 [1] | AC50 [2] |
| --- | --- | --- | --- |
| Cc1nn2c(N3CCOCC3)cc(C(C)(C)C)nc2c1-c1ccccc1 | -22.2 | 0.58 µM [rising, single point] | – |
| O=C(NCNC(=O)c1ccccc1)c1ccccc1 | 43.6 | – | 29.1 µM [rising, single point] |
| OCC1(CCOc2ccccc2)CCN(Cc2nc3ccc(F)cc3[nH]2)CC1 | 5.61 | 29.1 µM [rising, single point] | – |
| CN(C)C(CNC(=O)CSc1nc2ccccc2c(=O)n1Cc1ccco1)c1ccccc1 (centres undefined) | 29.3 | 32.6 µM [rising, single point] | – |
| Cc1cc(C(=O)CSc2nn3c(=O)c(C(C)(C)C)nnc3s2)c(C)n1-c1ccc(F)cc1 | 1.1 | 6.51 µM [falling, single point] | – |
| O=C(Nc1ccccc1C(=O)N1CCCCC1)c1ccccc1C(F)(F)F | 25.1 | 16.4 µM [rising, partial curve] | – |
| COC(=O)CSc1nnc(-c2cccnc2)n1-c1cc(OC)cc(OC)c1 | 0.884 | 0.651 µM [rising, full curve, poor fit] | – |
| O=C(COc1ccccc1)Nc1ncccn1 | -36.4 | 3.26 µM [falling, partial curve, poor fit] | 3.66 µM [falling, full curve] |
| Cc1ccc(-n2c(N)c(C(=O)N3CCOCC3)sc2=S)c(C)c1 | 27.6 | 0.82 µM [falling, full curve] | – |
| COc1ccc(/C=C2\SC(=S)N(CC(=O)N(C)C3CCS(=O)(=O)C3)C2=O)cc1 (centres undefined) | 18.5 | 23.1 µM [rising, single point] | – |
| Cc1cccc(S(=O)(=O)C(C#N)c2nc3ccccc3nc2N2CCCC2)c1 (centres undefined) | -13.4 | 0.184 µM [rising, full curve, poor fit] | – |
| Cc1ccc(NC(=O)CNC(=O)c2cccs2)cc1S(=O)(=O)Nc1ccc(Cl)cc1 | 8.99 | 0.82 µM [rising, full curve, poor fit] | – |
| Cc1ccccc1NC(=O)CSc1nnc(C)c(=O)[nH]1 | 27.4 | – | – |
| CC(C)Cn1c(NCCN(C)C)nc2c1c(=O)[nH]c(=O)n2C | -39.9 | – | 1.03 µM [falling, partial curve] |
| CC(C)(C)OC(=O)C1C(=O)CC(C)(O)C(C(=O)OC(C)(C)C)C1c1cccnc1 (centres undefined) | 12.5 | 0.291 µM [rising, full curve] | – |
| CC(=O)c1cc(C)ccc1OC(=O)CCN1C(=O)C2C3c4ccccc4C(c4ccccc43)C2C1=O (centres undefined) | -3.53 | 0.103 µM [falling, full curve, poor fit] | – |
| COc1c(-c2ccc([N+](=O)[O-])cc2[N+](=O)[O-])c(=O)n(C)c(=O)n1C | 28.7 | 6.51 µM [rising, full curve] | – |
| O=C(COc1ccccc1CNCc1ccccc1)Nc1ccccc1 | 59.2 | 14.6 µM [rising, partial curve] | 9.2 µM [rising, partial curve] |
| O=C(NCc1n[nH]c(=S)n1-c1ccc(Br)cc1)c1ccc(S(=O)(=O)N2CCCCC2)cc1 | 8.75 | – | – |
| CCOC(=O)c1c(Nc2ccccc2N)cc(C)nc1C | 6.61 | – | – |

Sorted by number of heavy atoms (descending): some entries from above.

| Structure (SMILES) | cell number change [%] | AC50 [1] | AC50 [2] |
| --- | --- | --- | --- |
| Cc1cc(C(=O)CSc2nn3c(=O)c(C(C)(C)C)nnc3s2)c(C)n1-c1ccc(F)cc1 | 1.1 | 6.51 µM [falling, single point] | – |
| OCC1(CCOc2ccccc2)CCN(Cc2nc3ccc(F)cc3[nH]2)CC1 | 5.61 | 29.1 µM [rising, single point] | – |
| O=C(COc1ccccc1)Nc1ncccn1 | -36.4 | 3.26 µM [falling, partial curve, poor fit] | 3.66 µM [falling, full curve] |

Additional results:

| Structure (SMILES) | cell number change [%] | AC50 [1] | AC50 [2] |
| --- | --- | --- | --- |
| COC(=O)CN(C#N)c1nc(NC(C)C)nc(NC(C)C)n1 | 24.3 | – | – |
| O=C(Nc1ccc(F)cc1F)N1CCC(c2nc3ccccc3o2)CC1 | -26.3 | 1.3 µM [falling, full curve, poor fit] | – |
| CCOCCc1c(O)nc(SCC(=O)N2CCOCC2)[nH]c1=O | -1.32 | 5.62 µM [rising, single point] | – |
| Cc1ccc(OCC(=O)N2CCCCCC2)c(C)c1 | -3.43 | 29.1 µM [rising, single point] | – |
| CCOc1ccccc1NC(=O)c1cccc(NC(=O)C(C)C)c1 | -41.3 | – | – |
| Cc1nc2ccccc2c2oc(C(=O)NCc3ccccn3)cc12 | 212 | 0.326 µM [rising, full curve] | 0.366 µM [rising, full curve] |
| CC1CCCC(C)N1C(=O)Cn1c(=O)sc2ccccc21 (centres undefined) | 16.4 | 1.3 µM [rising, full curve] | – |
| COc1ccc(-c2nc3ccccc3nc2-c2ccc(OC)c(OC)c2)cc1OC | -5.41 | – | – |
| O=C(NCCCNC(=O)c1ccccn1)c1ccc(Cl)cc1 | 6.58 | – | – |
| COCCNC(=O)c1ccccc1NS(=O)(=O)c1ccc(Br)s1 | 47 | – | 4.61 µM [rising, partial curve] |
| Cc1ccccc1N1CCN(c2ccc(NC(=O)C3CCCCC3C(=O)O)cc2)CC1 (centres undefined) | -22.7 | 6.51 µM [rising, single point] | – |
| O=C(CN(Cc1ccccc1Cl)C(=O)CN1C(=O)CSc2ccccc21)NC1CC1 | 0.952 | – | – |
| CC(=O)Nc1ccc(N)cc1 | 6.33 | 0.58 µM [falling, partial curve] | – |
| CCCC1C(=O)N(c2ccccc2)C1c1ccccc1 (centres undefined) | 0.828 | 6.51 µM [rising, single point] | – |
| CC(C)n1c(O)c(/C=C2\C=NN=C2c2ccccc2)sc1=S | -59 | 29.1 µM [falling, single point] | 16.4 µM [falling, single point] |
| CC1=C(C(=O)N(C)C)C(c2cccc(Cl)c2)NC(=O)N1 (centres undefined) | -34.3 | – | 14.6 µM [falling, single point] |
| O=C(O)CSc1nnc(Cn2nnc3ccccc32)n1CCc1ccccc1 | -17.9 | 2.06 µM [falling, full curve, poor fit] | – |
| O=C(Nc1ccc(S(=O)(=O)N2CCCC2)cc1)c1cncc(Br)c1 | -11.5 | 0.00517 µM [falling, full curve, poor fit] | 0.00411 µM [falling, full curve, poor fit] |
| N#C/C(=C\c1cn(Cc2cccc(F)c2)c2ccccc12)C(=O)NCc1ccco1 | 5.71 | 4.61 µM [rising, single point] | – |
| CN(C)c1cc2c(cc1NC(=O)c1ccccc1Cl)n(C)c(=O)n2C | -14.4 | 1.03 µM [falling, full curve, poor fit] | – |
